The results in this text go back to publication PMC2788703.

Chains of the proteins cited; added tags and fusions are not shown. Lines headed by an entry give the natural chain unless they say otherwise; changes in a name come on top.
UniProt Q9Y4L5: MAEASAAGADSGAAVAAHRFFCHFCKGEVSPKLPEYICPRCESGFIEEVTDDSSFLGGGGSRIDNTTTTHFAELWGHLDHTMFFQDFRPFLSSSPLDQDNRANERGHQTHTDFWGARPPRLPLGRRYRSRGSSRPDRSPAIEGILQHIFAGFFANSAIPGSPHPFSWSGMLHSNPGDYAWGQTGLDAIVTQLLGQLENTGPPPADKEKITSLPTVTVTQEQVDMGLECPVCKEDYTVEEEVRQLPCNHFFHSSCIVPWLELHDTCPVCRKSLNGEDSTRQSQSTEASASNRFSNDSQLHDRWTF
UniProt Q10589: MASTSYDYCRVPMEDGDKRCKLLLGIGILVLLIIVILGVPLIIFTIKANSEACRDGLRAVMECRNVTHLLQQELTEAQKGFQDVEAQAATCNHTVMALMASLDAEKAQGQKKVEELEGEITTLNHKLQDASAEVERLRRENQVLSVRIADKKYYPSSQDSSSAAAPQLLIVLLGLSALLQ

Results are given in words; binding and its absence hold for the method and conditions named. In cells and extracts the contact can be indirect. Binding can be weak; no strength is given.

Assay [1] addresses GST-BCA2 (recombinant GST-tagged BCA2) (human) (UniProt Q9Y4L5). The assay can be described thus: pull-down; glutathione beads coupled with purified GST-BCA2 incubated with lysates of 293T cells expressing Myc-tetherin (FL or Δ1–20); immunoblot with Myc antibody; only the target purified. (In western blotting, separated proteins are transferred to a membrane and probed.)
The target in assay [2] is N-terminal HA-tagged BCA2 (human) (UniProt Q9Y4L5). The assay is described as follows: co-IP; 293T cells co-expressing Myc-tetherin (FL or Δ1–20) and HA-BCA2 (FL or deletion mutants); lysates incubated with anti-HA affinity gel; immunoblot with HA or Myc antibodies.

For the substance “Myc-tetherinΔ1–20 (deletion mutant devoid of the cytoplasmic tail domain) (from UniProt Q10589) (domain or fragment)”, the binding entry in assay [1] and in assay [2] was “binds” throughout.
